From paper PMC11131025
These are yes or no findings as the source states them, for the method shown. A result given as binding can be weak or reduced; the word gives no strength. For part of these data: Tags and fused reporters may be left off the sequences shown.

Assays:
[1] = target: T1, NOD1 overexpressed in 4T1 cells (human) (UniProt Q9Y239); experiment: flow cytometry on cells; cells treated with graded concentrations (0-20 nmol/L) of HIS-tagged BFT-1 for 30 min, stained with anti-HIS antibody; dead cells excluded with DAPI; NOD1-overexpressing against empty vector 4T1 cells, shCTRL against NOD1-knockdown MDA-MB-231 cells; only the binder purified
T1 sequence: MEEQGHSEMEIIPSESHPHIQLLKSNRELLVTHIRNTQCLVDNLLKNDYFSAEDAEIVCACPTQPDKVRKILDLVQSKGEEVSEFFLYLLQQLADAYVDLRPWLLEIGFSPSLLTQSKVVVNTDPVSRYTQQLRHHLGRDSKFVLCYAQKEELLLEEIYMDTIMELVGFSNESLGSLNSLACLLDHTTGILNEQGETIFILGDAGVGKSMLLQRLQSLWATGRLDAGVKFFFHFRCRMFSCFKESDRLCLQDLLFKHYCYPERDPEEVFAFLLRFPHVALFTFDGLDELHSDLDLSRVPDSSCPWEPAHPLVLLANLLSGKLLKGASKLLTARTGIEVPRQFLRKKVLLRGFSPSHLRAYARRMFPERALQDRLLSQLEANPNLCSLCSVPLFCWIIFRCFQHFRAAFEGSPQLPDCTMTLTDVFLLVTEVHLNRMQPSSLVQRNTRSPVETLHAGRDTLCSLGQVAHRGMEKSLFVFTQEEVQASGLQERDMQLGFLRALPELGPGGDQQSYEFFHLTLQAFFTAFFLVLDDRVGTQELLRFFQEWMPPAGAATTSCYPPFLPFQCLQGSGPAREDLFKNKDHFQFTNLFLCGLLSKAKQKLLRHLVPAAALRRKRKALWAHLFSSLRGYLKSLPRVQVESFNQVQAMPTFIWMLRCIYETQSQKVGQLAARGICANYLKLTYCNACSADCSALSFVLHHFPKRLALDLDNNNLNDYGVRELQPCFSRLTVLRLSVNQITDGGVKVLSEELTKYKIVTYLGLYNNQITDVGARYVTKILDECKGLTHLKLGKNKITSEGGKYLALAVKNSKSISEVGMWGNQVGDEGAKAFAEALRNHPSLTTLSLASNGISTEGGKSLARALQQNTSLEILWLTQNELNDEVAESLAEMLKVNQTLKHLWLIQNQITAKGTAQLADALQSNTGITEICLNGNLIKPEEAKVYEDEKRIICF

[2] = target: T2, NOD1, endogenous in MDA-MB-231 cells (human (endogenous in MDA-MB-231)) (UniProt Q9Y239); experiment: as above
T2 sequence: T1 sequence

[3] = target: T3, FLAG-tagged NOD1, purified protein (human) (UniProt Q9Y239); experiment: pull-down; in vitro GST pull-down with purified recombinant proteins; which partner was held on the beads is not told; both purified
T3 sequence: T1 sequence

Measured: binding

HIS-tagged BFT-1 (Bacteroides fragilis toxin 1) (enterotoxigenic Bacteroides fragilis)
binds: all assays above
